This series can be described thus: general procedure: solution-phase peptide synthesis. Conditions: conjugation step, adduct with 2 NaCl molecules (ST 873); adduct with 2 NaCl and 2 HCl molecules (ST 897).

The substance “N-5-(ipoxantin-9-yl) pentyloxycarbonyl L-valyl L-alpha-aspartyl L-lysyl L-arginine” yielded a conjugation yield of 35%.
“N-5-(ipoxantin-9-yl) pentyloxycarbonyl L-arginyl L-lysyl L-alpha-aspartyl L-valyl L-tyrosine” showed a conjugation yield of 33%.

For the origin of these results see patent publication US5298621A (Sigma-Tau Industrie Farmaceutiche Riunite S.p.A., priority 1990, dated 1994).
